Measurements reported in patent US20230390363A1 (PURDUE RESEARCH FOUNDATION, priority 2020, published 2023).

Test: general procedure: Fmoc solid-phase peptide synthesis; Wang resin (0.6 mmol/g); 2-chlorotrityl resin (0.6 mmol/g) for branched targeting ligands; HBTU/NMM, double coupling with PyBOP/NMM
Details: whole synthesis

Substance: PTHrP(1-46) with Glu22, Glu25, Leu23, Leu28, Leu31, Lys26, Lys30, Aib29, C-terminally fused to D-Glu20 (DE20)
- final HPLC purity (HPLC and mass spectrometry): 94%
- isolated yield (overall): 19%
